Measurements published in PubChem BioAssay AID330 (DTP/NCI, 2004).
The list is a part of this screen's results and no random one: it gathers tests that were run many times, whatever their T/C, doses with no T/C, and many T/C values between a quarter and a half above the control. Other doses and runs of a compound stand elsewhere. T/C: endpoint of the treated group in % of that of the vehicle group. Some doses have a count of surviving animals in place of a T/C: the source holds a T/C of zero for them, seemingly a mark for toxic or unscored doses. Some doses without a T/C left all or most animals alive at the check, yet need not have been tolerated: the source hardly ever lists a survival T/C far under the control, and the zero likely stands for such cases as well. Counts of survivors are from the toxicity check (mostly the fifth day) where no day follows; animals may have died later. Schedule codes are those of the source, read here as Q, the interval in days (D) or hours (H), X, the number of doses. Some doses were run more than once; their values stand side by side, smallest first. Some schedules carry Z or #; the key to these is not given. Where survival is the endpoint, this PubChem deposit counts one and a half times the control or more as active, and values a quarter to a half above the control carry no call in these data; other NCI protocols may use other cut-offs. Some T/C values carry the count of animals alive at the toxicity check (mostly the fifth day); where none is given, no animal had died by that day.

Test system: P388 leukemia ip, CD2F1 mice, survival T/C
Assay: NCI In Vivo Anticancer Drug Screen. Data for tumor model P388 Leukemia (intraperitoneal) in CD2F1 (CDF1) mice
Details: T/C endpoint: median survival time, higher T/C = longer survival
[1] = dose: 50.0 mg/kg/injection, schedule: Q01DX009 (ip), vehicle: saline with Tween-80
[2] = dose: 100.0 mg/kg/injection, schedule: Q01DX009 (ip), vehicle: saline with Tween-80
[3] = dose: 200.0 mg/kg/injection, schedule: Q01DX009 (ip), vehicle: saline
[4] = dose: 400.0 mg/kg/injection, schedule: Q01DX001 (ip), vehicle: Klucel (hydroxypropylcellulose) (HPC)
[5] = dose: 200.0 mg/kg/injection, schedule: Q01DX009 (ip), vehicle: saline with Tween-80

O=C(NC1c2ccccc2CCc2ccccc21)C(F)(F)F
survivor count [1]: 6 of 6

CN(C)CCCN=C(N)CSP(=O)(O)O
survivor count (dose: 240.0 mg/kg/injection, schedule: Q01DX005 (ip), vehicle: saline): 2 of 6

c1ccc2c(NCCCCCCCCCCCCNc3c4ccccc4nc4ccccc34)c3ccccc3nc2c1
survivor count (dose: 10.0 mg/kg/injection, schedule: Q## X009 (ip), vehicle: lactic acid): 1 of 6 and 2 of 6
survivor count (dose: 20.0 mg/kg/injection, schedule: Q## X009 (ip), vehicle: lactic acid): 0 of 5

CNC(=O)OCc1nn(-c2ccc(Cl)cc2)c(C)c1COC(=O)NC
survivor count (dose: 25.0 mg/kg/injection, schedule: Q01DX009 (ip), vehicle: distilled water + Tween-80): 6 of 6
survivor count (dose: 50.0 mg/kg/injection, schedule: Q01DX009 (ip), vehicle: distilled water + Tween-80): 6 of 6

CCCC(=O)OCC1OC(n2cnc3c(=S)nc(N)[nH]c32)C(OC(=O)CCC)C1OC(=O)CCC (stereo unspecified)
T/C (dose: 5.0 mg/kg/injection, schedule: Q04DX003 (ip), vehicle: saline with Tween-80): 140 % of control
survivor count [2]: 5 of 6
T/C (dose: 100.0 mg/kg/injection, schedule: Q04DX003 (ip), vehicle: saline with Tween-80): 125 and 140 % of control
survivor count (dose: 400.0 mg/kg/injection, schedule: Q04DX003 (ip), vehicle: saline with Tween-80): 5 of 6

O=[N+]([O-])c1cccn2cnnc12
survivor count [3]: 2 of 6

O=C(N/N=C/c1ccccc1[OH2+])c1ccncc1.O=S(=O)([O-])[O-].[Fe+2]
survivor count [4]: 0 of 6

COC(=S)C(=S)OC
survivor count [1]: 1 of 6 and 2 of 6
survivor count [2]: 0 of 6
survivor count [5]: 0 of 6

O=C(Cc1nc2ccccc2[nH]c1=O)c1ccccc1
survivor count (dose: 50.0 mg/kg/injection, schedule: Q01DX009 (ip), vehicle: saline): 6 of 6
survivor count (dose: 100.0 mg/kg/injection, schedule: Q01DX009 (ip), vehicle: saline): 6 of 6
survivor count [3]: 6 of 6

C=CCOc1ccccc1N/N=C(\Cl)C(=O)OC
survivor count (dose: 100.0 mg/kg/injection, schedule: Q01DX005 (ip), vehicle: saline with Tween-80): 0 of 6
survivor count (dose: 200.0 mg/kg/injection, schedule: Q01DX005 (ip), vehicle: saline with Tween-80): 0 of 6

Nc1ccc(-c2nc3ccccc3c(=O)[nH]2)cc1
T/C (dose: 50.0 mg/kg/injection, schedule: Q01DX009 (ip), vehicle: Klucel (hydroxypropylcellulose) (HPC)): 91, 92, 95, 111 % of control
survivor count (dose: 200.0 mg/kg/injection, schedule: Q01DX009 (ip), vehicle: Klucel (hydroxypropylcellulose) (HPC)): 4 of 6 and 6 of 6

Clc1ccc(N=Cc2c3ccccc3cc3ccccc23)c(Cl)c1
survivor count [1]: 6 of 6
survivor count [2]: 6 of 6
survivor count [5]: 5 of 6

NC(=S)c1ccc(C2Nc3ccc(Cl)cc3N2)cc1 (stereo unspecified)
survivor count (dose: 100.0 mg/kg/injection, schedule: Q04DX002 (ip), vehicle: saline with Tween-80): 4 of 6
survivor count (dose: 200.0 mg/kg/injection, schedule: Q04DX002 (ip), vehicle: saline with Tween-80): 0 of 6
survivor count (dose: 400.0 mg/kg/injection, schedule: Q04DX002 (ip), vehicle: saline with Tween-80): 1 of 6

COc1c2ccccc2c(C)c2ccc3ccccc3c12
survivor count [4]: 6 of 6

CCCCCCCC/C=C/CCCCCCCC(=O)NCCCN (tested in a mixture with another compound)
survivor count (dose: 100.0 mg/kg/injection, schedule: Q04DX002 (ip), vehicle: saline): 4 of 6

C[CH2][Sn]([CH2]C)([O]S(C)(=O)=O)[O]S(C)(=O)=O
T/C (dose: 3.12 mg/kg/injection, schedule: Q04DX003 (ip), vehicle: saline): 125 % of control
T/C (dose: 12.5 mg/kg/injection, schedule: Q04DX003 (ip), vehicle: saline): 133 % of control [4 of 6 alive]
survivor count (dose: 25.0 mg/kg/injection, schedule: Q04DX003 (ip), vehicle: saline): 0 of 6
survivor count (dose: 100.0 mg/kg/injection, schedule: Q04DX003 (ip), vehicle: saline): 0 of 6
survivor count (dose: 200.0 mg/kg/injection, schedule: Q04DX003 (ip), vehicle: saline): 0 of 6
survivor count (dose: 400.0 mg/kg/injection, schedule: Q04DX003 (ip), vehicle: saline): 0 of 6
